{"sequences": {"note": "The chains behind the UniProt entries cited, without tags or fusion partners. Where a name states a change or a piece, a line headed by the entry shows the natural chain unless it says otherwise.", "UniProt Q9H5J0": "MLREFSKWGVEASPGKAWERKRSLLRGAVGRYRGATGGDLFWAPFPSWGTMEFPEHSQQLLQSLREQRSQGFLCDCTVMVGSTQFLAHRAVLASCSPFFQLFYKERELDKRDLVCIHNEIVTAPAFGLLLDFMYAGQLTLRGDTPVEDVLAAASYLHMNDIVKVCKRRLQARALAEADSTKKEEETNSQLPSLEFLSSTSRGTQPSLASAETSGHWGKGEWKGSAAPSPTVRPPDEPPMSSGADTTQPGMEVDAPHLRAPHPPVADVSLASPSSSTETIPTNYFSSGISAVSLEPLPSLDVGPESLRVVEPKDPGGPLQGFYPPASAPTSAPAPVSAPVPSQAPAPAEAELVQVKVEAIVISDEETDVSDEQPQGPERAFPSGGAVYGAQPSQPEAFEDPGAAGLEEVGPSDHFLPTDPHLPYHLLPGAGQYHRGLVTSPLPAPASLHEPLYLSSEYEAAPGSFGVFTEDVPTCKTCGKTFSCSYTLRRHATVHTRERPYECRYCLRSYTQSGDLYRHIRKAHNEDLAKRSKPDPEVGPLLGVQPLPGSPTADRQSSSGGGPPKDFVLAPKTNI"}, "source": "paper PMC9984425", "target": "ZBTB3 (SC nuclear extract, anti-ZBTB3 antibody) (Homo sapiens) (UniProt Q9H5J0)", "assay": "EMSA", "conditions": "EMSA: 20 nM biotin probe, 100 mM Tris pH 7.5, 55 mM KCl, 2.5 mM MgCl2, 1 mM DTT, 500 ng poly(dI-dC), 5% glycerol, 0.05% NP-40, 20 ul, room temperature 20 min, protein in an extract, label: 5' biotin on strand 1", "note": "The exact form of at least one protein or probe is not confirmed. Results from cells or extracts need not show a direct contact. No signal at the amounts used counts as a negative. Weaker means in comparison with the reference protein, sequence or condition of that experiment. At least one verdict was read from the data and is not stated in words by the source."}
{"sequence": "CCGGGAGCCCCGCTGGAGGCTGGCTTGGA (double strand) [IRF5-promoter]", "values": [{"measurement": "binding result", "setting": "anti-ZBTB3 antibody", "result": "binds"}]}
{"sequence": "CCAAAAAGCTCTGAGCCGGTGTTAGTAAGAAATGG (double strand) [rs4728142-G]", "values": [{"measurement": "binding result", "setting": "anti-ZBTB3 antibody, ZBTB3 prefers allele A", "result": "binds more weakly"}]}
{"sequence": "CCGGGAGCCCCGGGAGGCTGGCTTGGA (double strand) [IRF5-p-deltaCT]", "values": [{"measurement": "binding result", "setting": "binding lost on CT deletion", "result": "no binding"}]}
{"sequence": "CCAAAAAGCTCTGAGCCAGTGTTAGTAAGAAATGG (double strand) [rs4728142-A]", "values": [{"measurement": "binding result", "setting": "anti-ZBTB3 antibody, preferred allele", "result": "binds"}]}
